Assay results: paper PMC6915726
Results are given in words; binding and its absence hold for the method and conditions named. Binding seen in cells or lysates may run through a third protein. A yes stands for co-enrichment or nearness to the bait. Other partners may have been found.

Chains of the proteins cited; added tags and fusions are not shown.
UniProt O88895: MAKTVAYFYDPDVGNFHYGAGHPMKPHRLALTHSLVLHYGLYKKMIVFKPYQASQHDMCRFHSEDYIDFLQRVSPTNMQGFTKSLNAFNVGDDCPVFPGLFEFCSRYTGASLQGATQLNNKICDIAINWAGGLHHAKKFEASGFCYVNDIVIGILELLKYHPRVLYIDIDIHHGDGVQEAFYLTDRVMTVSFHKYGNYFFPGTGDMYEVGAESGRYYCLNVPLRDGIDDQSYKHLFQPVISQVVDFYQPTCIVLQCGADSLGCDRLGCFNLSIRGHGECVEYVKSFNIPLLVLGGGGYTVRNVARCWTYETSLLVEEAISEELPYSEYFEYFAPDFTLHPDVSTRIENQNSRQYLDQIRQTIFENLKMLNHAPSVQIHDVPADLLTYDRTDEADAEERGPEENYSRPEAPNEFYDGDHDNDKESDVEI
UniProt Q60974: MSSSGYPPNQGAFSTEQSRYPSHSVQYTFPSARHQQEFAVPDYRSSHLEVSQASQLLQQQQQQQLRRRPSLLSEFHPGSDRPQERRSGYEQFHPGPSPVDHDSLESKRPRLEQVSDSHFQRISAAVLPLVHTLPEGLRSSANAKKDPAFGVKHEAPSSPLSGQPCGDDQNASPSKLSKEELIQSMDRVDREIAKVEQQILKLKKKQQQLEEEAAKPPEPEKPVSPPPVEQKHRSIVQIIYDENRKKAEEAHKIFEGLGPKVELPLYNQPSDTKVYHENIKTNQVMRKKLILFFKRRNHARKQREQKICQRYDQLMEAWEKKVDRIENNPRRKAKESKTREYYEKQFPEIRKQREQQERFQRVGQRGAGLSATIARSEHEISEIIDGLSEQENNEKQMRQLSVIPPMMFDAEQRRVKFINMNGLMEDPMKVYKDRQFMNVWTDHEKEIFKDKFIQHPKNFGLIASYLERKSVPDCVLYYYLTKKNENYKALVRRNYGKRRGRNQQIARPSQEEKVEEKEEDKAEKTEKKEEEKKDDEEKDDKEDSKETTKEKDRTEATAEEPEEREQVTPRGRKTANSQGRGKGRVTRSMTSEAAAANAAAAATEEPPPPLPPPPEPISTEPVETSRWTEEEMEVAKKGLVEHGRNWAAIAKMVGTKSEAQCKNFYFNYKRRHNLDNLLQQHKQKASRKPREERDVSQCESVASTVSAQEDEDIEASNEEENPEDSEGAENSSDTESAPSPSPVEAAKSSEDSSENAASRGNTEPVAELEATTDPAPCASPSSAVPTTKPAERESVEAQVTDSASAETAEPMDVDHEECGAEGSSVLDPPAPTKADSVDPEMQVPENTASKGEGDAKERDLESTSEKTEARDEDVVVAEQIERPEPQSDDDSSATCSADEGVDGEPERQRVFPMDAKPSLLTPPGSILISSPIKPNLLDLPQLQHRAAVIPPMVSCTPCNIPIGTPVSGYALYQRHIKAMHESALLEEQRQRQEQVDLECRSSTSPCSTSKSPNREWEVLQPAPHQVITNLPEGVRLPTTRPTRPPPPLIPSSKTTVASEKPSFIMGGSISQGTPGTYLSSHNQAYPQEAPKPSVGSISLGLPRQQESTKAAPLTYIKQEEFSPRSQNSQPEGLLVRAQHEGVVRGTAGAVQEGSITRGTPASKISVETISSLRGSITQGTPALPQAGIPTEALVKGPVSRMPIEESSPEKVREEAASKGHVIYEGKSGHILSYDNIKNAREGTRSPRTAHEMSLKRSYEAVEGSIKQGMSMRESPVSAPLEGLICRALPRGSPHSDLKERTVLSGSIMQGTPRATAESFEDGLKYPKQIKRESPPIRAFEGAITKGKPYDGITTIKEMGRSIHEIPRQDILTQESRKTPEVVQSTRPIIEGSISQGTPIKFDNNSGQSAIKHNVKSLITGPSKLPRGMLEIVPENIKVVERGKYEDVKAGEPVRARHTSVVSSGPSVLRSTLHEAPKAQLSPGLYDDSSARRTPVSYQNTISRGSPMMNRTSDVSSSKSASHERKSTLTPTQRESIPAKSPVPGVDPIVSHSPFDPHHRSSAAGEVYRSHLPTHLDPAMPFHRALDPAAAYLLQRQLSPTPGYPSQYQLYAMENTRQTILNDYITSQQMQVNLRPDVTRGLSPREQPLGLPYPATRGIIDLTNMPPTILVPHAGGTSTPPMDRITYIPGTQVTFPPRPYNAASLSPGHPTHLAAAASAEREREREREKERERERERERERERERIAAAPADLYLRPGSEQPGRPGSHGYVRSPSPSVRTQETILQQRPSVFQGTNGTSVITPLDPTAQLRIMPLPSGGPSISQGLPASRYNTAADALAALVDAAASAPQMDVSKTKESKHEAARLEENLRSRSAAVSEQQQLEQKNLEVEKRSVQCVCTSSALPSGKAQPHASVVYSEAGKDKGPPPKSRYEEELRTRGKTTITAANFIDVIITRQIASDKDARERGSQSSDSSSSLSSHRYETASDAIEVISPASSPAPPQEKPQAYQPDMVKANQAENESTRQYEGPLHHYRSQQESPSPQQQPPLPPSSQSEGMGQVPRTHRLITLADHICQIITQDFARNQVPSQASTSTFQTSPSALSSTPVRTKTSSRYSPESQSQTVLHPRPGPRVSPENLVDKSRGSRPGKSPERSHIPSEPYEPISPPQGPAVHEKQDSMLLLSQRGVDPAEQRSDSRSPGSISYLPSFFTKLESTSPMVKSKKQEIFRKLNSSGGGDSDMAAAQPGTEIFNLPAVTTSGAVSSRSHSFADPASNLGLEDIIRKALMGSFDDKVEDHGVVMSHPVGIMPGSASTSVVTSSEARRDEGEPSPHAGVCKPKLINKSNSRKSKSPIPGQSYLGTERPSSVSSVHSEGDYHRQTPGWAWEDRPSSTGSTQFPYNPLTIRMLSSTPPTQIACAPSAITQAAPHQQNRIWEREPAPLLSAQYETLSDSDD

Target: histone deacetylase 3 (mouse (endogenous in granulosa cells)) (UniProt O88895)
Assay: affinity purification with mass spectrometry; Co-IP of endogenous HDAC3 from total lysate of granulosa cells (mice, PMSG 46 h) with anti-HDAC3 antibody on Dynabeads Protein G, 1 h at room temperature; normal rabbit IgG as control; LC-MS of the eluate

Question: Which binding does the source give for NCoR1 (from UniProt Q60974 1-2453) here?
Answer: binds
